{
  "sequences": {"note": "Amino acid sequences for entries named in this document (tags omitted).", "UniProt Q08211": "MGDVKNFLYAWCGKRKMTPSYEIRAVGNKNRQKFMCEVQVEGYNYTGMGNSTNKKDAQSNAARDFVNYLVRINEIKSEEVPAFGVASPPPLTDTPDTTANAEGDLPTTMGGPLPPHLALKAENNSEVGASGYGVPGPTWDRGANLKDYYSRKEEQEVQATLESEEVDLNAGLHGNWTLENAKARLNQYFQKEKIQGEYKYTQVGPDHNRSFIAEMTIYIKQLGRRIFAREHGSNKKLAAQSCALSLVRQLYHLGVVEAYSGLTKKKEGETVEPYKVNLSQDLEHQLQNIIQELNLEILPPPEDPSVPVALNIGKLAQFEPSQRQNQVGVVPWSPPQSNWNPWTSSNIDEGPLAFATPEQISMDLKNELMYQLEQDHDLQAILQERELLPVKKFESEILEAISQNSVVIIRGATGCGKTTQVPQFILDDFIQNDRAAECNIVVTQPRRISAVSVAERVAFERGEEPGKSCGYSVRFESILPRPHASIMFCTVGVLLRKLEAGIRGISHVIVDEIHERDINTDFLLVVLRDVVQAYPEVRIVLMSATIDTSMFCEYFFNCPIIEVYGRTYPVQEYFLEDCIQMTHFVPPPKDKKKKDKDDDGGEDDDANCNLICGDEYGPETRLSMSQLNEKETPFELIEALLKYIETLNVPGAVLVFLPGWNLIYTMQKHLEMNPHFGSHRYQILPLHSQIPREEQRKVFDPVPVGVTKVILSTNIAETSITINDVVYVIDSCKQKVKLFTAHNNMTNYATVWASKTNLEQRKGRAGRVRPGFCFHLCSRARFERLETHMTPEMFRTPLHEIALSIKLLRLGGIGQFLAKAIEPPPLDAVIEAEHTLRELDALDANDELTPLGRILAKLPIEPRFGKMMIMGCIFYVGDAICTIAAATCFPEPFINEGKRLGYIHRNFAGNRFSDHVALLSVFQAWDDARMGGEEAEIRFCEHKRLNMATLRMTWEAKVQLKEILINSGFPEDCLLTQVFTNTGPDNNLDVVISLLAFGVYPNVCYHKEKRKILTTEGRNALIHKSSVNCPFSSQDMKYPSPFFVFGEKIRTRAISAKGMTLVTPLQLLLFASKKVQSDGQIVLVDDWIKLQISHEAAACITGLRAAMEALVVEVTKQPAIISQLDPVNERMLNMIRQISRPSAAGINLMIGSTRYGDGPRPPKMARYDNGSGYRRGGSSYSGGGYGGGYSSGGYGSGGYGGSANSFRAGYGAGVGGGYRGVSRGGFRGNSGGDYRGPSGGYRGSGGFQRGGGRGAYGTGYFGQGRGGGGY", "UniProt P19525": "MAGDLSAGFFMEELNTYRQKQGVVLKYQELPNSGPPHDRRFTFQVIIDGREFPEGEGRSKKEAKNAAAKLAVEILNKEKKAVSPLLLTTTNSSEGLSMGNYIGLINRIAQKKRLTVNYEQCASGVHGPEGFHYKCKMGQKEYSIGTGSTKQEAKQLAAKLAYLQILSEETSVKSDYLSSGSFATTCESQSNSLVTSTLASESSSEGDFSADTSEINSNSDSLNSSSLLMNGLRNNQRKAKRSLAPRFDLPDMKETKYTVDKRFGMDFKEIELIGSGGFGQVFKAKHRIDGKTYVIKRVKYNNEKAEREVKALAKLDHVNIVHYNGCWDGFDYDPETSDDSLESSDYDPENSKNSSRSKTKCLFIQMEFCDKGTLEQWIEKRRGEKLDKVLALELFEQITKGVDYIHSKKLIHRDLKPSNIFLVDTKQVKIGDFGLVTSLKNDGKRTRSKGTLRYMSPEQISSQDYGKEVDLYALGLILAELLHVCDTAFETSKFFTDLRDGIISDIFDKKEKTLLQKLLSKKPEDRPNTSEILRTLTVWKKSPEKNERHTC"},
  "source": "paper PMC3701710",
  "biological_target": "RNA helicase A (RHA)/DHX9 (human (endogenous in A549, HeLa, THP1)) (UniProt Q08211)",
  "assay": "co-IP; uninfected HeLa cell lysates treated with RNase V1 (10 u/ml) at 4°C overnight; IP with rabbit anti-DHX9; blot with mouse anti-PKR and anti-DHX9",
  "note": "No constants are given. Whether binding was seen depends on the method and setting. Binding seen in cells or lysates may run through a third protein. Some binding calls cover weakened binding; strength is not graded here.",
  "data": [
    {"substance": "Protein Kinase R (PKR) (from UniProt P19525 1-551)", "values": [
      {"measurement": "binding", "value": "binds"}
    ]}
  ]
}
